In the supplement of paper PMC6411743:
± gives the standard deviation of the averaged measurements. This is one part of the list.

Molecular target: T1, J3KNF4 (UniProt O14618)
T1 sequence (whole entry): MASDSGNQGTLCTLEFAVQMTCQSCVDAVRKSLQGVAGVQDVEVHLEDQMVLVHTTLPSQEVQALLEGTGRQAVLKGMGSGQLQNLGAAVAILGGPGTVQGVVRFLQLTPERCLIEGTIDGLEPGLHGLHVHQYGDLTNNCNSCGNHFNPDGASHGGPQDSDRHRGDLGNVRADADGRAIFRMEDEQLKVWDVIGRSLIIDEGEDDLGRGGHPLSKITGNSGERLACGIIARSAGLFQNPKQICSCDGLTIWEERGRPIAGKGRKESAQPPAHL
Assay: NP40-soluble protein abundance relative to vehicle (solubility fold change) (ratio); higher = more soluble protein in presence of GTP
Procedure: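 Solubility proteome profiling in Jurkat crude lysate. Lysate was treated with Mg-GTP (0.1-10 mM) for 10 min at room temperature and 3 min at 37 °C, then solubilised with 0.8% NP40 and benzonase, followed by ultracentrifugation. Proteins were quantified by TMT10 LC-MS/MS; the value is the NP40-soluble abundance relative to the NP40-processed vehicle, from 3 independent experiments.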

## Nc1nc2c(ncn2[C@@H]2O[C@H](COP(=O)(O)OP(=O)(O)OP(=O)(O)O)[C@@H](O)[C@H]2O)c(=O)[nH]1 [guanosine triphosphate]
concentration: 0.1mM
  NP40-soluble protein abundance: 0.98 ± 0.053
concentration: 0.5mM
  NP40-soluble protein abundance: 0.956 ± 0.042
concentration: 1mM
  NP40-soluble protein abundance: 0.927 ± 0.045
concentration: 2mM
  NP40-soluble protein abundance: 0.897 ± 0.087
concentration: 4mM
  NP40-soluble protein abundance: 0.901 ± 0.084
concentration: 6mM
  NP40-soluble protein abundance: 0.892 ± 0.074
concentration: 8mM
  NP40-soluble protein abundance: 0.895 ± 0.1
concentration: 10mM
  NP40-soluble protein abundance: 0.889 ± 0.086
